The other results are listed elsewhere or left out. Shown are side measurements of this screen, not its main read-out; they come without a call. Compounds called inactive in the main read-out are mostly missing here. The note in brackets gives the kind of curve behind each potency; many fits are weak.
Test: qHTS Assay for Lipid Storage Modulators in Drosophila S3 Cells;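 on cell number change: cells counted by Cell Tracker Red CMTPX staining in the red channel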
Conditions: BODIPY lipid droplet fluorescence, 18-24 h; for cell number change: measured here: cell count max response, cells fed with added oleic acid
Method in brief: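 Laser-scanning cytometry quantifies lipid droplet accumulation (500–530 nm total intensity; droplet/cell object ratio) in oleic acid-fed (400 uM added) Drosophila S3 cells treated with a concentration series. 20 uM Triacsin C defined 100% inhibition.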

[1] = measured here: lipid fluorescence (Fed channel) AC50, cells fed with added oleic acid
[2] = measured here: cell number channel AC50, cells fed with added oleic acid

SMILES	cell number change [%]	AC50 [1]	AC50 [2]
CCCn1c(C(C)NS(=O)(=O)c2ccccc2)n[nH]c1=S (stereo not drawn)	4.96	–	–
CCOc1cc(C)c(Cl)cc1S(=O)(=O)N(CC)CC	-1.76	13 µM [rising, partial curve]	–
CC12CCC(=O)N1C(C(=O)NNC(=O)c1cccc(Cl)c1)CS2 (stereo not drawn)	1.5	–	–
CCSc1nnc(NC(=O)C2CCN(S(=O)(=O)c3cc(C(F)(F)F)ccc3Cl)CC2)s1	38.7	–	7.31 µM [rising, partial curve]
CC(=O)OC(/C(O)=C(\C#N)c1nc2ccccc2[nH]1)c1ccccc1 (stereo not drawn)	-9.19	–	–
CCc1ccc(Cn2nnc(C(=O)NCc3ccccc3OC)c2N)cc1	9.69	0.146 µM [rising, full curve, poor fit]	–
O=C(Cc1cccs1)Nc1cccc([N+](=O)[O-])c1	-37.9	1.3 µM [falling, partial curve]	1.84 µM [falling, full curve]
CCCCC(=O)Nc1ccc(C(=O)NCCc2ccccc2)cc1	7.4	0.82 µM [rising, full curve, poor fit]	–
CN(CC(=O)Nc1cccc(F)c1)C(=O)Cn1cnc2c1c(=O)n(C)c(=O)n2C	0.901	0.651 µM [falling, single point]	–
COc1cccc(NC(=O)NC2CCN(CC(=O)Nc3ccccc3[N+](=O)[O-])CC2)c1	0.87	29.1 µM [falling, partial curve, poor fit]	–
CCCCOC(=O)C1[C@H]2C(=O)N(Cc3cccs3)C[C@]23C=C[C@H]1O3 (stereo partly drawn)	39.7	–	0.00461 µM [rising, full curve, poor fit]
CCCCn1c(N)c(N(CC)C(=O)c2ccco2)c(=O)[nH]c1=O	4.03	0.146 µM [rising, full curve, poor fit]	–
N/C(=N\OC(=O)/C=C/c1ccccc1Cl)c1ccccn1	24.7	3.66 µM [rising, full curve]	–
COc1ccc(C2=NS(=O)(=O)N(C)C(C(=O)NCc3ccccn3)=C2)cc1	2.99	32.6 µM [rising, single point]	–
O=C(Cc1ccc(S(=O)(=O)N2CCOCC2)s1)N1CCN(S(=O)(=O)c2cccc([N+](=O)[O-])c2)CC1	4.77	23.1 µM [rising, single point]	–
CCOC(=O)c1c(CN2CCCCC2C)oc2ccc(OC)cc12 (stereo not drawn)	-11	1.64 µM [rising, partial curve, poor fit]	–
Cc1ccc(NC(=S)N(CCCN2CCOCC2)Cc2ccccn2)cc1Cl	96.3	–	29.1 µM [rising, single point]
COc1cc(NC(=S)N2CCN(S(C)(=O)=O)CC2)cc(OC)c1	23.1	5.17 µM [falling, single point]	–
CC(C)CC(=O)CN1C(=O)C2(OCCO2)c2ccccc21	-78.4	–	23.1 µM [falling, partial curve, poor fit]
CC12CCC(C(=O)Nc3ccccc3)(C/C1=N\O)C2(C)C (stereo not drawn)	-11.9	1.3 µM [falling, partial curve]	0.92 µM [falling, partial curve]

SMILES	cell number change [%]	AC50 [1]	AC50 [2]
O=C1CN=C(Nc2ccc(Cl)cc2)N1c1ccccc1	–	–	6.51 µM [rising, single point]
Cc1ccc(-c2csc3nc(CN(C)Cc4ccccc4)[nH]c(=O)c23)cc1	44	6.51 µM [rising, single point]	6.51 µM [rising, partial curve, poor fit]
CC(=O)Nc1ccc(NC(=O)c2ccc(NC(=O)c3ccccc3)cc2)cc1	5.41	–	5.17 µM [rising, single point]
O=C(NNC(=O)C1[C@H]2CCCC[C@@H]12)NC1CCCCC1 (stereo partly drawn)	-4.03	0.103 µM [rising, full curve, poor fit]	–
CCOc1cccc(C(=O)Nc2ccccc2N2CCN(C(=O)C(C)C)CC2)c1	2.74	29.1 µM [rising, partial curve]	–
COc1cc(NC(=S)NC(=O)c2ccccc2F)ccc1NC(=O)c1ccco1	-1.15	0.13 µM [rising, full curve, poor fit]	–
CCN1C(=O)/C(=C/c2cnn(C)c2C)SC1=S	23.1	0.082 µM [rising, full curve, poor fit]	–
CC(C)(C)C(=O)CC(=O)Nc1ccc(Cl)c(N)c1	-13.7	0.0651 µM [rising, full curve, poor fit]	–
Cc1cc(=O)oc(C)c1C(=O)N1CCN(C)CC1	3.09	0.58 µM [falling, full curve]	–
O=C(Nc1ccc(Cl)cc1F)C1CC(=O)N(Cc2ccco2)C1 (stereo not drawn)	–	–	6.51 µM [rising, single point]
COC(=O)c1cc(COc2ccc3ccc(=O)oc3c2)c(C)o1	0.828	6.51 µM [rising, single point]	–
O=[N+]([O-])c1ccc(N2CCCCCC2)c(S(=O)(=O)N2CCCCC2)c1	-18.2	–	–
CCOC(=O)NC(Nc1ccc(S(N)(=O)=O)cc1)(C(=O)OCC)C(F)(F)F (stereo not drawn)	-17.9	23.1 µM [falling, single point]	–
CC1CCC(C(C)C)C(OC(=O)COC(=O)c2cc(O)ccc2N)C1 (stereo not drawn)	-64.1	32.6 µM [falling, single point]	32.6 µM [falling, partial curve]
CCOc1ccc(OCC)c(NC(=O)C2CCCN(c3nc(C)cc(C)n3)C2)c1 (stereo not drawn)	–	5.17 µM [rising, single point]	4.11 µM [rising, single point]
COc1ccc(-c2ccc(/C=C3/C(=N)N4C=CSC4=NC3=O)o2)c([N+](=O)[O-])c1	13.6	–	–
CCOC(=O)c1ccc2[nH]c3ccccc3c2c1	-30.8	29.1 µM [falling, single point]	–
O=S(=O)(N1CCCCCC1)N1CCN(S(=O)(=O)N2CCOCC2)CC1	-30.8	3.66 µM [falling, full curve]	0.731 µM [falling, full curve]
COc1ccccc1OCCOc1ccc(C(=O)c2ccccc2)cc1	6.19	11.6 µM [rising, partial curve, poor fit]	–
COc1ccc(NC(=O)Nc2ccc(N(C)C)cc2)cc1	1.89	11.6 µM [rising, single point]	–

SMILES	cell number change [%]	AC50 [1]	AC50 [2]
CCc1cccc2c(C(=O)CN3C(=O)C(=O)N(C4CCCC4)C3=O)c[nH]c12	-14.5	1.03 µM [falling, full curve]	–
O=C(Nc1ccc2nc3n(c(=O)c2c1)CCCC3)c1ccccc1[N+](=O)[O-]	-37.3	13 µM [falling, partial curve]	4.61 µM [rising, single point]
CN1CCN(c2ccc(S(=O)(=O)N3CCCCC3)cc2NC(=O)Cc2ccccc2F)CC1	-1.08	–	–
Cc1nc(=O)c(-c2ccccc2)c(C)n1-c1cccc(C(=O)O)c1	-6.02	0.146 µM [falling, full curve]	–
O=C(c1cc(O)c(O)c([N+](=O)[O-])c1)c1ccccc1F	-35.9	23.1 µM [falling, single point]	13 µM [falling, partial curve, poor fit]
O=C(CCc1nc2cccnc2n1Cc1ccccc1)NCCc1ccc(Cl)cc1	1.91	14.6 µM [rising, single point]	–
COc1cc2nc(SCc3ccc(C(F)(F)F)cc3)n(Cc3cccs3)c(=N)c2cc1OC	-103	29.1 µM [falling, single point]	18.4 µM [falling, single point]
CC(=O)Nc1ccc(Cl)cc1C(=O)O	-205	29.1 µM [falling, single point]	29.1 µM [falling, single point]
COc1ccc(CC(=O)Nc2ccc3nc(C)sc3c2)cc1OC	16.7	0.731 µM [rising, partial curve, poor fit]	–
Cc1cc(C)cc(NC(=O)CN2CCN(C(=O)C3CCCO3)CC2)c1 (stereo not drawn)	-5.32	5.62 µM [rising, single point]	–
O=C(Nc1cccc(F)c1)c1ccc(-c2ccccc2Cl)o1	27.4	–	–
CCCS(=O)(=O)N1CCC(C(=O)NCCCN(C)Cc2ccccc2)CC1	9.39	18.4 µM [falling, partial curve]	–
O=C(c1ccco1)N1CCN(C(=O)c2cc(=O)[nH]c3ccccc23)CC1	3.5	13 µM [falling, partial curve, poor fit]	–
Cc1ccc(C)c2[nH]c(=O)c(CN(CC3CCCO3)C(=O)NC3CCCCC3)cc12 (stereo not drawn)	23	–	–
COc1ccc(OC)c(NC(=O)c2cnc3n(c2=O)CCS3)c1	8.22	6.51 µM [rising, single point]	0.146 µM [rising, full curve, poor fit]
Cc1ccc(-c2nc(SCC(=O)Nc3cc(C)on3)c3c(=O)n(C)c(=O)n(C)c3n2)cc1	8.63	1.46 µM [falling, full curve]	–
Cc1nc(-c2ccccc2)sc1C(=O)Nc1ccccc1F	32.4	–	29.1 µM [rising, single point]
CCOC(=O)C1=CCN(Cc2ccccc2)CC1	11	–	–
CC(NC(=O)c1ccco1)C1COc2ccccc2O1 (stereo not drawn)	3.48	1.3 µM [falling, full curve]	1.46 µM [falling, full curve]

In another format: entries from further up
SMILES | cell number change [%] | AC50 [1] | AC50 [2]
Cc1nc(=O)c(-c2ccccc2)c(C)n1-c1cccc(C(=O)O)c1 | -6.02 | 0.146 µM [falling, full curve] | –
O=C(c1cc(O)c(O)c([N+](=O)[O-])c1)c1ccccc1F | -35.9 | 23.1 µM [falling, single point] | 13 µM [falling, partial curve, poor fit]
O=C(CCc1nc2cccnc2n1Cc1ccccc1)NCCc1ccc(Cl)cc1 | 1.91 | 14.6 µM [rising, single point] | –
COc1cc2nc(SCc3ccc(C(F)(F)F)cc3)n(Cc3cccs3)c(=N)c2cc1OC | -103 | 29.1 µM [falling, single point] | 18.4 µM [falling, single point]
CC(=O)Nc1ccc(Cl)cc1C(=O)O | -205 | 29.1 µM [falling, single point] | 29.1 µM [falling, single point]
COc1ccc(CC(=O)Nc2ccc3nc(C)sc3c2)cc1OC | 16.7 | 0.731 µM [rising, partial curve, poor fit] | –
Cc1cc(C)cc(NC(=O)CN2CCN(C(=O)C3CCCO3)CC2)c1 (stereo not drawn) | -5.32 | 5.62 µM [rising, single point] | –
O=C(Nc1cccc(F)c1)c1ccc(-c2ccccc2Cl)o1 | 27.4 | – | –
CCCS(=O)(=O)N1CCC(C(=O)NCCCN(C)Cc2ccccc2)CC1 | 9.39 | 18.4 µM [falling, partial curve] | –
O=C(c1ccco1)N1CCN(C(=O)c2cc(=O)[nH]c3ccccc23)CC1 | 3.5 | 13 µM [falling, partial curve, poor fit] | –
Cc1ccc(C)c2[nH]c(=O)c(CN(CC3CCCO3)C(=O)NC3CCCCC3)cc12 (stereo not drawn) | 23 | – | –
COc1ccc(OC)c(NC(=O)c2cnc3n(c2=O)CCS3)c1 | 8.22 | 6.51 µM [rising, single point] | 0.146 µM [rising, full curve, poor fit]
Cc1ccc(-c2nc(SCC(=O)Nc3cc(C)on3)c3c(=O)n(C)c(=O)n(C)c3n2)cc1 | 8.63 | 1.46 µM [falling, full curve] | –
